Measured values reported in PMC6642535.
Results are given in words; binding and its absence hold for the method and conditions named. In cells and extracts the contact can be indirect. Some entries that bind do so weakly or less than the wild type.

Sequences of proteins named here, by UniProt entry; tags and fusion partners are left off.
UniProt O60678: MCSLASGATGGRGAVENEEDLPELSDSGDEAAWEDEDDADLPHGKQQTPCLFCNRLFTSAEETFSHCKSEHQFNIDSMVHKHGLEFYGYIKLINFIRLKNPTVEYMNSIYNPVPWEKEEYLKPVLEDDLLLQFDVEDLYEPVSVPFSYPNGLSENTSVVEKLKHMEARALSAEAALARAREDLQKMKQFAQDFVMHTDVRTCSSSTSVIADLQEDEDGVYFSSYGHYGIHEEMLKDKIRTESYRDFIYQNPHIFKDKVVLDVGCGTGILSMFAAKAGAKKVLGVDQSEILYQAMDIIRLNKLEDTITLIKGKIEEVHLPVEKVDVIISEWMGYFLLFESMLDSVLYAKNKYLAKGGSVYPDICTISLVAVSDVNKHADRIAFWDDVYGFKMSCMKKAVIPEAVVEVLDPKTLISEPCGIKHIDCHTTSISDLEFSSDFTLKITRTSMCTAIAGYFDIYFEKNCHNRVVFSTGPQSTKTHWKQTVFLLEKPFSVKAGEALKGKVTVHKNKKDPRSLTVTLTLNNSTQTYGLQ
UniProt P04406: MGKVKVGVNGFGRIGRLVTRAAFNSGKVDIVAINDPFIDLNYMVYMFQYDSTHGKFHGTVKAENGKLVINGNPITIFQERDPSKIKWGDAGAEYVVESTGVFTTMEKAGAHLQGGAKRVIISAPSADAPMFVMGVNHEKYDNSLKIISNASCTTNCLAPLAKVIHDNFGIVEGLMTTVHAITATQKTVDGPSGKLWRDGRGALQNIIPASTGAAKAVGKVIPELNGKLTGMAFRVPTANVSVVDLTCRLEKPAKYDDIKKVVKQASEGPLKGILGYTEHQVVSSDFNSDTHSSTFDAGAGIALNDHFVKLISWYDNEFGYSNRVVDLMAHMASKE

Biological target: Green fluorescent protein (GFP)-tagged PRMT3 (protein arginine methyltransferase 3) (UniProt O60678)
Assay: co-IP; lysates of GFP- and GFP-PRMT3-overexpressing PANC-1 cells; immunoprecipitation with GFP and GAPDH antibodies; western blotting for GAPDH and GFP

binding: binds
Substance: glyceraldehyde-3-phosphate dehydrogenase (GAPDH), endogenous (from UniProt P04406 1-335) (enzyme)
